Results as given in publication PMC5421193.
Results are given in words; binding and its absence hold for the method and conditions named. For part of these data: Binding can be weak; no strength is given. For part of these data: Binding seen in cells or lysates may run through a third protein. For part of these data: Sequences can lack the tags named with a protein.

Amino acid sequences for entries named in this document (tags omitted). A change or cut given only in a name is not applied to a line headed by its entry.
UniProt D5LM18: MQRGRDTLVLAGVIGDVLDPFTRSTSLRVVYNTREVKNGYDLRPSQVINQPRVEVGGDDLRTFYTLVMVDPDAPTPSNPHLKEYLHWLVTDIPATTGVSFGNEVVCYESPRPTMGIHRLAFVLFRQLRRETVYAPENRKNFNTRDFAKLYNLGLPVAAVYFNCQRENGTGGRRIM

How the values were obtained:
[1] = biological target: RoFTmu4 (Y153C) fused to the C-terminal half of YFP (Rosa hybrida); assay: split reporter; BiFC in N. benthamiana leaf epidermis cells; AtFD-YFP^N (pFGC-YN173) with FT/TFL1 homologs fused to YFP^C (pFGC-YC155); YFP fluorescence by confocal microscopy
[2] = biological target: FaTFL1 (Fragaria TFL1) fused to the C-terminal half of YFP (Fragaria ananassa); assay: as above
[3] = biological target: PhFT (Petunia FT) fused to the C-terminal half of YFP (Petunia hybrida) (UniProt D5LM18); assay: as above
[4] = biological target: RoFTmu1 (R7Q) fused to the C-terminal half of YFP (Rosa hybrida); assay: as above
[5] = biological target: RoFTmu5 (N154D) fused to the C-terminal half of YFP (Rosa hybrida); assay: as above
[6] = biological target: RoTFL1 (Rosa TFL1) fused to the C-terminal half of YFP (Rosa hybrida); assay: as above
[7] = biological target: RoFT-YFP^C (Rosa FT fused to the C-terminal half of YFP) (Rosa hybrida); assay: as above
[8] = biological target: RoFTmu3 (A116S) fused to the C-terminal half of YFP (Rosa hybrida); assay: as above
[9] = biological target: RoFTmu2 (T65I) fused to the C-terminal half of YFP (Rosa hybrida); assay: as above
[10] = biological target: RoFTmu4 (Y153C), bait in pGBKT7 (Rosa hybrida); assay: two-hybrid; AtFD as prey in PGADT7, FT/TFL1 homologs as bait in PGBKT7; co-transformed yeast selected on SD-Leu/-Trp, interactions tested on SD-Leu/-Trp/-His/-Ade/X-a-Gal; three independent clones for each transformation
[11] = biological target: Fragaria TFL1 (FaTFL1), bait in pGBKT7 (Fragaria ananassa); assay: as above
[12] = biological target: RoFTmu3 (A116S), bait in pGBKT7 (Rosa hybrida); assay: as above
[13] = biological target: RoFTmu5 (N154D), bait in pGBKT7 (Rosa hybrida); assay: as above
[14] = biological target: Rosa FT (RoFT), bait in pGBKT7 (Rosa hybrida); assay: as above
[15] = biological target: RoFTmu2 (T65I), bait in pGBKT7 (Rosa hybrida); assay: as above
[16] = biological target: Petunia FT (PhFT), bait in pGBKT7 (Petunia hybrida); assay: as above
[17] = biological target: RoFTmu1 (R7Q), bait in pGBKT7 (Rosa hybrida); assay: as above
[18] = biological target: Rosa TFL1 (RoTFL1), bait in pGBKT7 (Rosa hybrida); assay: as above

Row | binding [1] | binding [2] | binding [3] | binding [4] | binding [5] | binding [6] | binding [7] | binding [8] | binding [9] | binding [10] | binding [11] | binding [12] | binding [13] | binding [14] | binding [15] | binding [16] | binding [17] | binding [18] | Binder
1 | binds | no binding | binds | binds | binds | no binding | binds | binds | binds | – | – | – | – | – | – | – | – | – | AtFD-YFP^N (Arabidopsis FD fused to the N-terminal half of YFP) (protein, UniProt Q84JK2 1-285) MLSSAKHQRNHRLSATNKNQTLTKVSSISSSSPSSSSSSSSTSSSSPLPSQDSQAQKRSLVTMEEVWNDINLASIHHLNRHSPHPQHNHEPRFRGQNHHNQNPNSIFQDFLKGSLNQEPAPTSQTTGSAPNGDSTTVTVLYSSPFPPPATVLSLNSGAGFEFLDNQDPLVTSNSNLHTHHHLSNAHAFNTSFEALVPSSSFGKKRGQDSNEGSGNRRHKRMIKNRESAARSRARKQAYTNELELEVAHLQAENARLKRQQDQLKMAAAIQQPKKNTLQRSSTAPF
2 | – | – | – | – | – | – | – | – | – | binds | no binding | binds | binds | binds | binds | no binding | binds | no binding | Arabidopsis FD (AtFD), prey in pGADT7 (protein, UniProt Q84JK2 1-285) MLSSAKHQRNHRLSATNKNQTLTKVSSISSSSPSSSSSSSSTSSSSPLPSQDSQAQKRSLVTMEEVWNDINLASIHHLNRHSPHPQHNHEPRFRGQNHHNQNPNSIFQDFLKGSLNQEPAPTSQTTGSAPNGDSTTVTVLYSSPFPPPATVLSLNSGAGFEFLDNQDPLVTSNSNLHTHHHLSNAHAFNTSFEALVPSSSFGKKRGQDSNEGSGNRRHKRMIKNRESAARSRARKQAYTNELELEVAHLQAENARLKRQQDQLKMAAAIQQPKKNTLQRSSTAPF
